# According to paper PMC11079228:
# Results are given in words; binding and its absence hold for the method and conditions named. In cells and extracts the contact can be indirect. These calls come from enrichment with a bait or labelling near it, and not all partners need be listed.
# Molecular target: Huntingtin-interacting protein 1 (rat) (rat (endogenous in rat FLS))
# Test: affinity purification with mass spectrometry; rabbit anti-rat-HIP1 antibody (20 μg per sample) on Dynabeads M-270 Epoxy; total lysates of rat FLS (one DA and one R6 cell line, each in triplicate), starved 24 h, then PDGFβ 100 ng/mL 30 min; lysis in water with protease and phosphatase inhibitors by three freeze-thaw cycles; elution with 8 M urea, LysC and trypsin, nano-LC-MS/MS, label-free quantitation
row,Binder,binding
1,"Vinculin (protein, UniProt P85972 1-1066) MPVFHTRTIESILEPVAQQISHLVIMHEEGEVDGKAIPDLTAPVAAVQAAVSNLVRVGKETVQTTEDQILKRDMPPAFIKVENACTKLVQAAQMLQSDPYSVPARDYLIDGSRGILSGTSDLLLTFDEAEVRKIIRVCKGILEYLTVAEVVETMEDLVTYTKNLGPGMTKMAKMIDERQQELTHQEHRVMLVNSMNTVKELLPVLISAMKIFVTTKNSKNQGIEEALKNRNFTVGKMSAEINEIIRVLQLTSWDEDAWASKDTEAMKRALASIDSKLNQAKGWLRDPNASPGDAGEQAIRQILDEAGKVGELCAGKERREILGTCKMLGQMTDQVADLRARGQGASPVAMQKAQQVSQGLDVLTAKVENAARKLEAMTNSKQSIAKKIDAAQNWLADPNGGPEGEEQIRGALAEARKIAELCDDPKERDDILRSLGEIAALTSKLGDLRRQGKGDSPEARALAKQVATALQNLQTKTNRAVANSRPAKAAVHLEGKIEQAQRWIDNPTVDDRGVGQAAIRGLVAEGHRLANVMMGPYRQDLLAKCDRVDQLAAQLADLAARGEGESPQARALASQLQDSLKDLKTQMQEAMTQEVSDVFSDTTTPIKLLAVAATAPPDAPNREEVFDERAANFENHSGRLGATAEKAAAVGAANKSTVEGIQASVKTARELTPQVISAARILLRNPGNQAAYEHFETMKNQWIDNVEKMTGLVDEAIDTKSLLDASEEAIKKDLDKCKVAMANIQPQMLVAGATSIARRANRILLVAKREVENSEDPKFREAVKAASDELSKTISPMVMDAKAVAGNISDPGLQKSFLDSGYRILGAVAKVREAFQPQEPDFPPPPPDLEQLRLTDELAPPKPPLPEGEVPPPRPPPPEEKDEEFPEQKAGEVINQPMMMAARQLHDEARKWSSKGNDIIAAAKRMALLMAEMSRLVRGGSGTKRALIQCAKDIAKASDEVTRLAKEVAKQCTDKRIRTNLLQVCERIPTISTQLKILSTVKATMLGRTNISDEESEQATEMLVHNAQNLMQSVKETVREAEAASIKIRTDAGFTLRWVRKTPWYQ",binds
2,"14-3-3 protein gamma; tyrosine 3-monooxygenase/tryptophan 5-monooxygenase activation protein, gamma (protein, UniProt P61983 1-247) MVDREQLVQKARLAEQAERYDDMAAAMKNVTELNEPLSNEERNLLSVAYKNVVGARRSSWRVISSIEQKTSADGNEKKIEMVRAYREKIEKELEAVCQDVLSLLDNYLIKNCSETQYESKVFYLKMKGDYYRYLAEVATGEKRATVVESSEKAYSEAHEISKEHMQPTHPIRLGLALNYSVFYYEIQNAPEQACHLAKTAFDDAIAELDTLNEDSYKDSTLIMQLLRDNLTLWTSDQQDDDGGEGNN",binds
3,"IDH3A (protein, UniProt Q99NA5 28-366) AGGVQTVTLIPGDGIGPEISASVMKIFDAAKAPIQWEERNVTAIQGPGGKWMIPPEAKESMDKNKMGLKGPLKTPIAAGHPSMNLLLRKTFDLYANVRPCVSIEGYKTPYTDVNIVTIRENTEGEYSGIEHVIVDGVVQSIKLITEGASKRIAEFAFEYARNNHRSNVTAVHKANIMRMSDGLFLQKCREVAENCKDIKFNEMYLDTVCLNMVQDPSQFDVLVMPNLYGDILSDLCAGLIGGLGVTQSGNIGANGVAIFESVHGTAPDIAGKDMANPTALLLSAVMMLRHMGLFDHAAKIEAACFATIKDGKSLTKDLGGNSKCSDFTEEICRRVKDLD",binds
4,"IDH2 (protein, UniProt P56574 40-452) AEKRIKVEKPVVEMDGDEMTRIIWQFIKEKLILPHVDVQLKYFDLGLPNRDQTNDQVTIDSALATQKYSVAVKCATITPDEARVEEFKLKKMWKSPNGTIRNILGGTVFREPIICKNIPRLVPGWTKPITIGRHAHGDQYKATDFVVDRAGMFKLVFTPKDGSGAKEWEVYNFPAGGVGMGMYNTDESISGFAHSCFQYSIQKKWPLYLSTKNTIMKAYDGRFKDIFQEIFDKHYKTDFDKNKIWYEHRLIDDMVAQVLKSSGGFVWACKNYDGDVQSDILAQGFGSLGLMTSVLVCPDGKTIEAEAAHGTVTRHYREHQKGRPTSTNPIASIFAWTRGLEHRGKLDGNQDLIRFAQTLEKVCVQTVESGAMTKDLAGCIHGLSNVKLNEHFLNTTDFLDTIKSNLDRALGKQ",binds
5,"UBL4A (protein, UniProt B2GV38 1-157) MQLTVKALQGRECSLQVAEDELVSTLKHLVSDKLNVPVRQQRLLFKGKALADEKRLSDYNIGPNSKLNLVVKPLEKVLLEEGSAHRLVDSSATPIWQLISKVLARHFSIGDASRVLEQLQRDYDRSLSRLTLDDIERLASRFLHPEVTEAMEKGFCK",binds
6,"VCPIP1 (protein, UniProt Q8CF97 1-1221) MSQPPPPPPLPPPPPPPEAPQTSSSLAAAATPGGLSKRRDRRILSGSCPDPKCQARLFFPASGSVSIECTECGQRHEQQQLLGVEEVTDPDVVLHNLLRNALLGVTGAPKKNTELVKVMGLSNYHCKLLSPILARYGMDKQTGRAKLLRDMNQGELFDCALLGDRAFLIEPEHVNTVGYGKDRSGSLLYLHDTLEDIKRANKSQECLIPVHVDGDGHCLVHAVSRALVGRELFWHALRENLKQHFQQHLARYQALFHDFIDAAEWEDIINECDPLFVPPEGVPLGLRNIHIFGLANVLHRPIILLDSLSGMRSSGDYSATFLPGLIPAEKCTGRDGHLNKPICIAWSSSGRNHYIPLVGIKGAALPKLPMNLLPKAWGVPQDLIKKYIKLEEDGGCVIGGDRSLQDKYLLRLVAAMEEVFMDKHGIHPSLVADVHQYFYRRTGVIGVQPEEVTAAAKKAVMDNRLHKCLLCGALSELHVPPEWLAPGGKLYNLAKSTHGQLRPDKNYSFPLNNLVCSYDPVKDVLLPDYGLSNLTACNWCHGTSVRRVRGDGSIVYLDGDRTNSRSTGGKCGCGFKHFWEGKEYDNLPEAFPITLEWGGRVVRETVYWFQYESDPSLNSNVYDVAMKLVTKHFPGEFGSEILVQKVVHTILHQTAKKNPDDYTPVNIDGAHAQRIGDVQGQELESQLPTKIILTGQKTKTLHKEELNMSKTERTIQQNITEQASVMQKRKTEKLKQEQKGQPRTVSPSTIRDGPSSAPATPTKAPYSPTTSKEKKIRITTNDGRQSMVTLKSSTTFFELQESIAREFNIPPYLQCIRYGFPPKELMPPQAGMEKEPVPLQHGDRITIEILKGKAEGGPSTAAHSAHTVRQEEIAVTGKLSSKELQEQADKEMYSLCLLATLMGEDVWSYAKGLPHMFQQGGVFYNIMKKTMGMADGKHCTFPHLPGKTFVYNASEDRLELCVDAAGHFPIGPDVEDLVKEAVSQVRAEATTRSRESSPSHGLLKLGSGGVVKKKSEQLHNVTAFQGKGHSLGTASSNPHMDPRARETLAVRKHNTGTDFSNSSIKTEPPVFTAASSNSELIRIAPGVVTMRDGRQIDPDVVEAQRKKLQEMVSSIQASMDKHLRDQSTEQTPSDLSQRKVEAVSSSVRPGNLQTGLPESFSLTGGTENLNTETTDSRVADVLGAAFATRSKAQKENSMEEPEEMDSQDAETTNTTEPMDHS",binds
7,"MCM4 (protein, UniProt G3V681 1-862) MSSPASTPSRRSSRRGRVTPTQSLRSEESRSSPSGRRRGEDSSTGELLPMPTSPGADLQSPAAQNALFSSPPQMHSSAIPLEFDVSSPLTYGTPSSRVEGTPRSGVRGTPMRQRPDLGSARKGLQVDLQSDGAAAEDTVASEQSLGQKLVIWGTDVNVATCKEHFQRFLQCFTDPLAKEEENVGIDITQPLYMQRLGEINITGEPFLNVNCEHIKSFGKNLYRQLISYPQEVIPTFDMAVNEIFFDRYPDSILEHQIQVRPFNALKTKSMRNLNPEDIDQLITISGMVIRTSQLIPEMQEAFFQCQVCAHTTRVEMDRGRIAEPCTCVHCHTTHSMALIHNRSLFSDKQMIKLQESPEDMPAGQTPHTVVLFAHNDLVDKVQPGDRVNVTGIYRAVPIRVNPRVSNVKSVYKTHIDVIHYRKTDAKRLHGLDEEAEQKLFSEKRVKLLKELSRKPDIYERLASALAPSIYEHEDIKKGILLQLFGGTRKDFSHTGRGKFRAEINILLCGDPGTSKSQLLQYVYNLVPRGQYTSGKGSSAVGLTAYVMKDPETRQLVLQTGALVLSDNGICCIDEFDKMNESTRSVLHEVMEQQTLSIAKAGIICQLNARTSVLAAANPIESQWNPKKTTIENIQLPHTLLSRFDLIFLMLDPQDEAYDRRLAHHLVSLYYQSEEQVEQEFLDMAVLKDYIAYAHSTIMPRLSEEASQALIEAYVNMRKIGSSRGMVSAYPRQLESLIRLAEAHAKVRFSDKVEAIDVEEAKRLHREALKQSATDPRTGIVDISILTTGMSATSRKRKEELAEALRKLILSKGKTPALKYQQLFEDIRGQSDTAITKDMFEEALRALADDDFLTVTGKTVRLL",binds
